Assays:
5-HT2A = 5-HT2A (Homo sapiens, UniProt P28223); test: biochemical; conditions: read-out: Primary binding assay Inhibition, Mean %
D5 = D5 (Homo sapiens, UniProt P21918); test: biochemical; conditions: read-out: Primary binding assay Inhibition, Mean %
NET = NET (Homo sapiens, UniProt P23975); test: biochemical; conditions: read-out: Primary binding assay Inhibition, Mean %
M2 = M2 (Homo sapiens, UniProt P08172); test: biochemical; conditions: read-out: Primary binding assay Inhibition, Mean %
α2β4 = α2β4 (Rattus norvegicus, UniProt P12389+P12392); test: biochemical; conditions: read-out: Primary binding assay Inhibition, Mean %
α2β2 = α2β2 (Rattus norvegicus, UniProt P12389+P12390); test: biochemical; conditions: read-out: Primary binding assay Inhibition, Mean %
5-HT1B = 5-HT1B (Homo sapiens, UniProt P28222); test: biochemical; conditions: read-out: Primary binding assay Inhibition, Mean %
5-HT1A = 5-HT1A (Homo sapiens, UniProt P08908); test: biochemical; conditions: read-out: Primary binding assay Inhibition, Mean %
α2C = α2C (Homo sapiens, UniProt P18825); test: biochemical; conditions: read-out: Primary binding assay Inhibition, Mean %
H4 = H4 (Homo sapiens, UniProt Q9H3N8); test: biochemical; conditions: read-out: Primary binding assay Inhibition, Mean %
D4 = D4 (Homo sapiens, UniProt P21917); test: biochemical; conditions: read-out: Primary binding assay Inhibition, Mean %
sigma-1 receptor (σ1R) [1] = target: T1, sigma-1 receptor (σ1R) (Homo sapiens, UniProt Q99720); conditions: σ1, 10 μM, quadruplicate
5-HT1D = 5-HT1D (Homo sapiens, UniProt P28221); test: biochemical; conditions: read-out: Primary binding assay Inhibition, Mean %
SERT = SERT (Homo sapiens, UniProt P31645); test: biochemical; conditions: read-out: Primary binding assay Inhibition, Mean %
α2A = α2A (Homo sapiens, UniProt P08913); test: biochemical; conditions: read-out: Primary binding assay Inhibition, Mean %
5-HT1E = 5-HT1E (Homo sapiens, UniProt P28566); test: biochemical; conditions: read-out: Primary binding assay Inhibition, Mean %
α1B = α1B (Homo sapiens, UniProt P35368); test: biochemical; conditions: read-out: Primary binding assay Inhibition, Mean %
H2 = H2 (Homo sapiens, UniProt P25021); test: biochemical; conditions: read-out: Primary binding assay Inhibition, Mean %
α1A = α1A (Homo sapiens, UniProt P35348); test: biochemical; conditions: read-out: Primary binding assay Inhibition, Mean %
β1 = β1 (Homo sapiens, UniProt P08588); test: biochemical; conditions: read-out: Primary binding assay Inhibition, Mean %
β3 = β3 (Homo sapiens, UniProt P13945); test: biochemical; conditions: read-out: Primary binding assay Inhibition, Mean %
β2 = β2 (Homo sapiens, UniProt P07550); test: biochemical; conditions: read-out: Primary binding assay Inhibition, Mean %
DOR = DOR (Homo sapiens, UniProt P41143); test: biochemical; conditions: read-out: Primary binding assay Inhibition, Mean %
M1 = M1 (Homo sapiens, UniProt P11229); test: biochemical; conditions: read-out: Primary binding assay Inhibition, Mean %
M5 = M5 (Homo sapiens, UniProt P08912); test: biochemical; conditions: read-out: Primary binding assay Inhibition, Mean %
PBR = PBR (Rattus norvegicus, UniProt P16257); test: biochemical; conditions: read-out: Primary binding assay Inhibition, Mean %
D2 = D2 (Homo sapiens, UniProt P14416); test: biochemical; conditions: read-out: Primary binding assay Inhibition, Mean %
α4β4 = α4β4 (Rattus norvegicus, UniProt P09483+P12392); test: biochemical; conditions: read-out: Primary binding assay Inhibition, Mean %
α3β4 = α3β4 (Rattus norvegicus, UniProt P04757+P12392); test: biochemical; conditions: read-out: Primary binding assay Inhibition, Mean %
H3 = H3 (Homo sapiens, UniProt Q9Y5N1); test: biochemical; conditions: read-out: Primary binding assay Inhibition, Mean %
D3 = D3 (Homo sapiens, UniProt P35462); test: biochemical; conditions: for inhibition at 10 µM: read-out: Primary binding assay Inhibition, Mean %
α1D = α1D (Homo sapiens, UniProt P25100); test: biochemical; conditions: read-out: Primary binding assay Inhibition, Mean %
5-HT2B = 5-HT2B (Homo sapiens, UniProt P41595); test: biochemical; conditions: for inhibition at 10 µM: read-out: Primary binding assay Inhibition, Mean %
DAT = DAT (Homo sapiens, UniProt Q01959); test: biochemical; conditions: read-out: Primary binding assay Inhibition, Mean %
KOR = KOR (Homo sapiens, UniProt P41145); test: biochemical; conditions: read-out: Primary binding assay Inhibition, Mean %
D1 = D1 (Homo sapiens, UniProt P21728); test: biochemical; conditions: for inhibition at 10 µM: read-out: Primary binding assay Inhibition, Mean %
5-HT5A = 5-HT5A (Homo sapiens, UniProt P47898); test: biochemical; conditions: read-out: Primary binding assay Inhibition, Mean %
M4 = M4 (Homo sapiens, UniProt P08173); test: biochemical; conditions: read-out: Primary binding assay Inhibition, Mean %
5-HT7A = 5-HT7A (Homo sapiens, UniProt P34969); test: biochemical; conditions: read-out: Primary binding assay Inhibition, Mean %
α4β2 = α4β2 (Rattus norvegicus, UniProt P09483+P12390); test: biochemical; conditions: read-out: Primary binding assay Inhibition, Mean %
α4β2 (Rat Brain) = α4β2 (Rat Brain) (Rattus norvegicus, UniProt P09483+P12390); test: biochemical; conditions: read-out: Primary binding assay Inhibition, Mean %
5-HT2C = 5-HT2C (Homo sapiens, UniProt P28335); test: biochemical; conditions: read-out: Primary binding assay Inhibition, Mean %
H1 = H1 (Homo sapiens, UniProt P35367); test: biochemical; conditions: read-out: Primary binding assay Inhibition, Mean %
MOR = MOR (Homo sapiens, UniProt P35372); test: biochemical; conditions: read-out: Primary binding assay Inhibition, Mean %
α2B = α2B (Homo sapiens, UniProt P18089); test: biochemical; conditions: read-out: Primary binding assay Inhibition, Mean %
α3β2 = α3β2 (Rattus norvegicus, UniProt P04757+P12390); test: biochemical; conditions: read-out: Primary binding assay Inhibition, Mean %
M3 = M3 (Homo sapiens, UniProt P20309); test: biochemical; conditions: read-out: Primary binding assay Inhibition, Mean %
5-HT6 = 5-HT6 (Homo sapiens, UniProt P50406); test: biochemical; conditions: read-out: Primary binding assay Inhibition, Mean %
5-HT3 = 5-HT3 (Homo sapiens, UniProt P46098); test: biochemical; conditions: read-out: Primary binding assay Inhibition, Mean %
sigma-1 receptor (σ1R) [2] = target: T1, sigma-1 receptor (σ1R); test: biochemical; conditions: read-out: Primary binding assay Inhibition % (mean), σ1, 10 μM, quadruplicate

Sequences of proteins named here, by UniProt entry; tags and fusion partners are left off. A change or cut given only in a name is not applied to a line headed by its entry. Residues count along the entry.
UniProt P21918, whole entry: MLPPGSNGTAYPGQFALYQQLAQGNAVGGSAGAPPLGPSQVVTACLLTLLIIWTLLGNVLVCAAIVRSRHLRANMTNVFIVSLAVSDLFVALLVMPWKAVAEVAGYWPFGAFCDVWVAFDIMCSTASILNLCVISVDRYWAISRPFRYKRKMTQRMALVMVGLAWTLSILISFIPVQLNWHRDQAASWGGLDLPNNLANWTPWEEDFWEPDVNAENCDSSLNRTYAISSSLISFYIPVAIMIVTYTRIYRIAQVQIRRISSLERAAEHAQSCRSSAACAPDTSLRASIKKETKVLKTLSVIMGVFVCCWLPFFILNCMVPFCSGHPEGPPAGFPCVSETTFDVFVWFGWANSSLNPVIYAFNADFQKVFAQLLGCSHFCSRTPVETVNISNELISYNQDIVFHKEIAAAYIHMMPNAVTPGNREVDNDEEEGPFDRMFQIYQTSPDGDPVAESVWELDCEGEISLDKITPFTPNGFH
UniProt P23975, whole entry: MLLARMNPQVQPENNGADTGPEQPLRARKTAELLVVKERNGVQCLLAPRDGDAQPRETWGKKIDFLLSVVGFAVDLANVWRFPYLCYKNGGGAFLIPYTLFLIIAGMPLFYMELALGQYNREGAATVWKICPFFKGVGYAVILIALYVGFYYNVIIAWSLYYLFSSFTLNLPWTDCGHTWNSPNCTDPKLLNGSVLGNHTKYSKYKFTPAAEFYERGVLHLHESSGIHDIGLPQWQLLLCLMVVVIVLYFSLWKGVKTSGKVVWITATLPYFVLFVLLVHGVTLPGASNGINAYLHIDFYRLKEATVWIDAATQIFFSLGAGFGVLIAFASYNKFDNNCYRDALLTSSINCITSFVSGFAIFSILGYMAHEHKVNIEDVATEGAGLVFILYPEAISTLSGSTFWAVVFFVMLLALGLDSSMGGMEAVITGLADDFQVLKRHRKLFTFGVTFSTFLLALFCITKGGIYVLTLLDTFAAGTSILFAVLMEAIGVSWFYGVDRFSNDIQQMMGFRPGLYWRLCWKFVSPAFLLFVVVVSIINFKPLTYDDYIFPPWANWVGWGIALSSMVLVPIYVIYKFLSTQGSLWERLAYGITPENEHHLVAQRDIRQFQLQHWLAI
UniProt P12392, 21-495: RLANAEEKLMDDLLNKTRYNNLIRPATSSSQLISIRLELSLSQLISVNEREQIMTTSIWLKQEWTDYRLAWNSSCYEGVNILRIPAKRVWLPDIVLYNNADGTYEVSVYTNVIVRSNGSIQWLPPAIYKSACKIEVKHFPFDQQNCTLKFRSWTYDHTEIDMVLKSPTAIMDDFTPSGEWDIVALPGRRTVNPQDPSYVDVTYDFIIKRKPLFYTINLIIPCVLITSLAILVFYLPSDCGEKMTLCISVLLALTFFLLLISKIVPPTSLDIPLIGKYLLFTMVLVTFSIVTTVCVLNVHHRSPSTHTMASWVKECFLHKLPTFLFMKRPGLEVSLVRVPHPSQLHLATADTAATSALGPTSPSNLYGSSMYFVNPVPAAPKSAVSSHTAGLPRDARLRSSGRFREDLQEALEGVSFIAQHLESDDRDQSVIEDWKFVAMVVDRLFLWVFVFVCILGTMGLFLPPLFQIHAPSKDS
UniProt P12390, 25-500: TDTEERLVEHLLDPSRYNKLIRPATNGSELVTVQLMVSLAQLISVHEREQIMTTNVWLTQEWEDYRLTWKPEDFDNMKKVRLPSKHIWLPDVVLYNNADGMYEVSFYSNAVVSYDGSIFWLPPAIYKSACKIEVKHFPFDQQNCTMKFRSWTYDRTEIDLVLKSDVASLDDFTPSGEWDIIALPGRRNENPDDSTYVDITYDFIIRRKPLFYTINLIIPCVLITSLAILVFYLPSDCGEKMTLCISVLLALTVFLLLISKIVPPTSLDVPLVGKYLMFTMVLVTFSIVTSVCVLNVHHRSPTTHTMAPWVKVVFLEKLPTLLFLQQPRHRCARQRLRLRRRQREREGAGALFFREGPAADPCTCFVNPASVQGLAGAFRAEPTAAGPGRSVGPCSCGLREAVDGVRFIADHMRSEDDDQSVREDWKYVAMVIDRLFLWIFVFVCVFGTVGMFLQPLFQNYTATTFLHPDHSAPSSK
UniProt Q9H3N8: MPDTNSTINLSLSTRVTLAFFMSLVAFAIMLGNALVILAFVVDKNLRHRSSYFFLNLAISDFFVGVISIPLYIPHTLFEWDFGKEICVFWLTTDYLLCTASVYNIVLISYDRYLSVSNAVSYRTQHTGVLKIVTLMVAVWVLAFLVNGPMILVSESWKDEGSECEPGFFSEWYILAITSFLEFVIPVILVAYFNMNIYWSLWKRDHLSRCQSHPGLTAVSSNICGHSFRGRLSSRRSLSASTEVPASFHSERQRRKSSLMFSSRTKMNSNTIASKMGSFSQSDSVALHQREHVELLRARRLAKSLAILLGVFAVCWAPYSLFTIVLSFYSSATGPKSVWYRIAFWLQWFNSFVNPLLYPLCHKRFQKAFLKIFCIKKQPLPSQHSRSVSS
UniProt P31645, whole entry: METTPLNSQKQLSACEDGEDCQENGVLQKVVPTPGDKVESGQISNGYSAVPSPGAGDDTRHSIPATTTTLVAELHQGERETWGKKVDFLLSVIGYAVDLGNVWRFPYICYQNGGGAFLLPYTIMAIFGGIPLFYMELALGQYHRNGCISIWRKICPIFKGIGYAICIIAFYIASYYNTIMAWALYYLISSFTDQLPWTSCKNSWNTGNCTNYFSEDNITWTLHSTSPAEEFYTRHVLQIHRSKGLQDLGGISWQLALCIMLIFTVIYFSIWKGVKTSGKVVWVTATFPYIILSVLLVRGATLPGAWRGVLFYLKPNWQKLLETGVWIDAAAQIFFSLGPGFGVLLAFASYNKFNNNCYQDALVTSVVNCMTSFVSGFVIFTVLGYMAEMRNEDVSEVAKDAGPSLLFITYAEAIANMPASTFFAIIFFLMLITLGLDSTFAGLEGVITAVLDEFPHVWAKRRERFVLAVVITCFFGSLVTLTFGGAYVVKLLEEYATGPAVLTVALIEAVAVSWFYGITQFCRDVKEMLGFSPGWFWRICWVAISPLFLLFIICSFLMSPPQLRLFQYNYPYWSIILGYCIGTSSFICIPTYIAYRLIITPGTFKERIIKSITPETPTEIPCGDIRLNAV
UniProt P08913, whole entry: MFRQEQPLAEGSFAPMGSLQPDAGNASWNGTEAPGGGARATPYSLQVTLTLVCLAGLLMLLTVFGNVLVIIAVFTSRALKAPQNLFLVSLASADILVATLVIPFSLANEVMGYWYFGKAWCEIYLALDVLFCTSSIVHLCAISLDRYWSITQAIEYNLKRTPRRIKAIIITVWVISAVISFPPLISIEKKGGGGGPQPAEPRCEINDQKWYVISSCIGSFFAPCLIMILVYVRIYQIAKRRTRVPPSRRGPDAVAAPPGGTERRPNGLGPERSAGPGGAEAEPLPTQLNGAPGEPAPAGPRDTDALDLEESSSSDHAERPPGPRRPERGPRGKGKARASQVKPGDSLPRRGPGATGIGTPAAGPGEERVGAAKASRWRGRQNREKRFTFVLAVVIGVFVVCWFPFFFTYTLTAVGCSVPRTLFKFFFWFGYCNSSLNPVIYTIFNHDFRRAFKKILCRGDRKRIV
UniProt P35368, whole entry: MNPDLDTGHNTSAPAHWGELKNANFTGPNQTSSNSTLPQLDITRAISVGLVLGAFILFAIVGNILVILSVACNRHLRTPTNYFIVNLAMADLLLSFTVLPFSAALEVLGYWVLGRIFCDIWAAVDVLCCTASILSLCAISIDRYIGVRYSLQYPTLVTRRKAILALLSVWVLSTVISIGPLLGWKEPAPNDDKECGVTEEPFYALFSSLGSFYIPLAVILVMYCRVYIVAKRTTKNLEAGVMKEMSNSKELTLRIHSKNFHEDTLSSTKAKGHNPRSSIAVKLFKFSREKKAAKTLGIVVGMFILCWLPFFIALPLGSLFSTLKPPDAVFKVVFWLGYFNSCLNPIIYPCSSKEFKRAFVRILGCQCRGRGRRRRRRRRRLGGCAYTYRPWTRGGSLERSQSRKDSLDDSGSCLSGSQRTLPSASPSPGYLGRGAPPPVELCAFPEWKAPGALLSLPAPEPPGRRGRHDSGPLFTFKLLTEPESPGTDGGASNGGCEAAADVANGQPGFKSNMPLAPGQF
UniProt P41143, whole entry: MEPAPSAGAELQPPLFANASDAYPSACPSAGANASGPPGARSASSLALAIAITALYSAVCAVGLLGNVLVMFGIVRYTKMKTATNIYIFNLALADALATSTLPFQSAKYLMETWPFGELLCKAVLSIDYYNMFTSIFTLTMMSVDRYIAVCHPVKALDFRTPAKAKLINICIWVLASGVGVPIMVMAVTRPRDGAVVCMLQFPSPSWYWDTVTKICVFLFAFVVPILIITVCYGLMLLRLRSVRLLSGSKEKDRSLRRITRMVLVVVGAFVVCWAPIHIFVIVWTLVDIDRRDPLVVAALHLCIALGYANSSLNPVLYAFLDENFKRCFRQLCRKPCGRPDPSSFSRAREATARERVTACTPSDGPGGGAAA
UniProt P16257, whole entry: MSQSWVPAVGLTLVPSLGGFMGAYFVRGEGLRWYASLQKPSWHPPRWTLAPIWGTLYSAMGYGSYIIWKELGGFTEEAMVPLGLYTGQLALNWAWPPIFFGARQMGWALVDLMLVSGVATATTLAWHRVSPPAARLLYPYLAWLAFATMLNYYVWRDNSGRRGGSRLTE
UniProt P09483, 31-630: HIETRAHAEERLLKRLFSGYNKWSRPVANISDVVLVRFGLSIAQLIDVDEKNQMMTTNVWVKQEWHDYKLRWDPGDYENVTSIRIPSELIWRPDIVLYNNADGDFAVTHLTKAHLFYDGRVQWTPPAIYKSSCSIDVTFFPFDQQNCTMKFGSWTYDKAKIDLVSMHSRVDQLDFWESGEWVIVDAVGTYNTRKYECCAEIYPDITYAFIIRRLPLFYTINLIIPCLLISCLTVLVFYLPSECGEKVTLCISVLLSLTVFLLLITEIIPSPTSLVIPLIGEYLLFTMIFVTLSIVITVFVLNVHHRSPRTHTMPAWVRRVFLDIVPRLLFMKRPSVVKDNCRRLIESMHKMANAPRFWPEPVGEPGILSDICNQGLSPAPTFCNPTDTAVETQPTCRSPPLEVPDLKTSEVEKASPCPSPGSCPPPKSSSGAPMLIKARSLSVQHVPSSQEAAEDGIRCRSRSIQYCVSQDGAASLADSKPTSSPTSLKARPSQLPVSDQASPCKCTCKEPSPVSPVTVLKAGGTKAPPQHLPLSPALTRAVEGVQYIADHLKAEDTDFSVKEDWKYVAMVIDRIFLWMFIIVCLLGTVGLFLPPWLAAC
UniProt Q9Y5N1: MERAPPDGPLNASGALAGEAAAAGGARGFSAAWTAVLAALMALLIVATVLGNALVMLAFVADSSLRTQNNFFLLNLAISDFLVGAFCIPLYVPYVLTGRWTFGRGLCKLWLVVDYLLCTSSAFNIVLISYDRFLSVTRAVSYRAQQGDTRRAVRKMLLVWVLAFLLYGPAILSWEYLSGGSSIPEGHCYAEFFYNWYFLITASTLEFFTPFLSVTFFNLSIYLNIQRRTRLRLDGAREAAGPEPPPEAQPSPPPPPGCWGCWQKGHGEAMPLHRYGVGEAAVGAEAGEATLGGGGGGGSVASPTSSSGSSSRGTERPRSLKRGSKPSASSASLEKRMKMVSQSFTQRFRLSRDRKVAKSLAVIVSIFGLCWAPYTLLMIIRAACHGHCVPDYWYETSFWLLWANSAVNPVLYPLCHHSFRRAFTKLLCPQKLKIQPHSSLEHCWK
UniProt P41595, whole entry, species assumed: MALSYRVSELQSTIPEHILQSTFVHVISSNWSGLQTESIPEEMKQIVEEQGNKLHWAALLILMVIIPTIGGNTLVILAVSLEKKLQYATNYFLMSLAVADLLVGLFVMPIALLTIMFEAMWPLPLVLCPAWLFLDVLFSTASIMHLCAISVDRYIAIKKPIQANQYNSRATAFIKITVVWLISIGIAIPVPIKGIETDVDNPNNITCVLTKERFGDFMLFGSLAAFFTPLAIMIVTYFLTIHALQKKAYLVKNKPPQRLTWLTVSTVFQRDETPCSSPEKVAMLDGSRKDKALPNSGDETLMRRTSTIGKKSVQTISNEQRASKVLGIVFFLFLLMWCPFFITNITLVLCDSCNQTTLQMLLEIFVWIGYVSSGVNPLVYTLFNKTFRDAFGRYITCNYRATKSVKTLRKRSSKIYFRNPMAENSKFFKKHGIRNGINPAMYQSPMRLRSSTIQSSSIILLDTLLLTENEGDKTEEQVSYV
UniProt P41145: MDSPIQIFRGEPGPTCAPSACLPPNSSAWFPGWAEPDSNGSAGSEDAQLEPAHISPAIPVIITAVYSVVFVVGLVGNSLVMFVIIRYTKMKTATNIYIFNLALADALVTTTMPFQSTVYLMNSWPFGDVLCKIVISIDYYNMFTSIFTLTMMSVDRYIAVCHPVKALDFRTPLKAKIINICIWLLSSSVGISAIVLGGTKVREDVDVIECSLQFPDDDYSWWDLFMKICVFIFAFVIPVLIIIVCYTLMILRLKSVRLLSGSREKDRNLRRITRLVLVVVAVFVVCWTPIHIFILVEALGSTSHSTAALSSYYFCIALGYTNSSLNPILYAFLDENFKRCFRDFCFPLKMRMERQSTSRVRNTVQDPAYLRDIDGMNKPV

CCCC(=O)O[C@@H]1C2=CCN3CCC[C@@H]3[C@H]2CCC1(C)C [Compound 1, Ischnocybine A]
inhibition at 10 µM (5-HT2A): 0.94% | inhibition at 10 µM (D5): 8.64% | inhibition at 10 µM (NET): 23% | inhibition at 10 µM (M2): 5.74% | inhibition at 10 µM (α2β4): -6.43% | inhibition at 10 µM (α2β2): 5.44% | inhibition at 10 µM (5-HT1B): 13% | inhibition at 10 µM (5-HT1A): 9.74% | inhibition at 10 µM (α2C): 37.7% | inhibition at 10 µM (H4): 5.56% | inhibition at 10 µM (D4): 48.8% | Primary binding assay Inhibition % (mean) (sigma-1 receptor (σ1R) [1]): 102 ± 2% | inhibition at 10 µM (5-HT1D): 18.1% | inhibition at 10 µM (SERT): 0.65% | inhibition at 10 µM (α2A): 24.2% | inhibition at 10 µM (5-HT1E): -12.6% | inhibition at 10 µM (α1B): -11.6% | inhibition at 10 µM (H2): 5.72% | inhibition at 10 µM (α1A): 5.63% | inhibition at 10 µM (β1): -10.1% | inhibition at 10 µM (β3): 17.1% | inhibition at 10 µM (β2): -13.4% | inhibition at 10 µM (DOR): -11.4% | inhibition at 10 µM (M1): 1.18% | inhibition at 10 µM (M5): 5.04% | inhibition at 10 µM (PBR): -22.2% | inhibition at 10 µM (D2): 9.14% | inhibition at 10 µM (α4β4): -7.43% | inhibition at 10 µM (α3β4): -7.58% | inhibition at 10 µM (H3): 32.9% | inhibition at 10 µM (D3): 4.92% | inhibition at 10 µM (α1D): -4.04% | Ki (5-HT2B): 9.31 µM | inhibition at 10 µM (5-HT2B): -64.4% | inhibition at 10 µM (DAT): -2.29% | inhibition at 10 µM (KOR): 22.2% | inhibition at 10 µM (D1): 32.4% | inhibition at 10 µM (5-HT5A): -14.8% | inhibition at 10 µM (M4): 3.34% | inhibition at 10 µM (5-HT7A): 33.1% | inhibition at 10 µM (α4β2): 0.41% | inhibition at 10 µM (α4β2 (Rat Brain)): 0.84% | inhibition at 10 µM (5-HT2C): -3.13% | inhibition at 10 µM (H1): 16.9% | inhibition at 10 µM (MOR): 1.38% | inhibition at 10 µM (α2B): 15% | inhibition at 10 µM (α3β2): -8.26% | inhibition at 10 µM (M3): 17.5% | inhibition at 10 µM (5-HT6): -14.1% | inhibition at 10 µM (5-HT3): 4% | inhibition at 10 µM (sigma-1 receptor (σ1R) [2]): 102%

CCCC(=O)O[C@@H]1C2=CCN3CCC[C@@H]3[C@H]2CC(=O)C1(C)C [Compound 2, Ischnocybinone]
inhibition at 10 µM (5-HT2A): 8% | inhibition at 10 µM (D5): -22.3% | inhibition at 10 µM (NET): 25.5% | inhibition at 10 µM (M2): 14.3% | inhibition at 10 µM (α2β4): 17.6% | inhibition at 10 µM (α2β2): 11.7% | inhibition at 10 µM (5-HT1B): 2.27% | inhibition at 10 µM (5-HT1A): -11.6% | inhibition at 10 µM (α2C): 15.7% | inhibition at 10 µM (H4): 18.9% | inhibition at 10 µM (D4): 15.2% | inhibition at 10 µM (5-HT1D): 1.58% | inhibition at 10 µM (SERT): -0.21% | inhibition at 10 µM (α2A): 34.1% | inhibition at 10 µM (5-HT1E): -21.4% | inhibition at 10 µM (α1B): -17% | inhibition at 10 µM (H2): 15.8% | inhibition at 10 µM (α1A): 9.04% | inhibition at 10 µM (β1): -10.5% | inhibition at 10 µM (β3): 25.5% | inhibition at 10 µM (β2): -3.54% | inhibition at 10 µM (DOR): -22.6% | inhibition at 10 µM (M1): 0.45% | inhibition at 10 µM (M5): 13.9% | inhibition at 10 µM (PBR): -42.5% | inhibition at 10 µM (D2): 23.2% | inhibition at 10 µM (α4β4): -31.2% | inhibition at 10 µM (α3β4): -4.49% | inhibition at 10 µM (H3): 22.1% | Ki (D3): 5.39 µM | inhibition at 10 µM (D3): 85.5% | inhibition at 10 µM (α1D): 16.2% | Ki (5-HT2B): > 10 µM | inhibition at 10 µM (5-HT2B): -51.5% | inhibition at 10 µM (DAT): -12.5% | inhibition at 10 µM (KOR): 5.58% | Ki (D1): > 10 µM | inhibition at 10 µM (D1): 54.9% | inhibition at 10 µM (5-HT5A): -6.32% | inhibition at 10 µM (M4): 7.63% | inhibition at 10 µM (5-HT7A): 21.5% | inhibition at 10 µM (α4β2): -3.17% | inhibition at 10 µM (α4β2 (Rat Brain)): 7% | inhibition at 10 µM (5-HT2C): 6.48% | inhibition at 10 µM (H1): 8.88% | inhibition at 10 µM (MOR): -2.53% | inhibition at 10 µM (α2B): 15% | inhibition at 10 µM (α3β2): -18.8% | inhibition at 10 µM (M3): 7.36% | inhibition at 10 µM (5-HT6): 1.16% | inhibition at 10 µM (5-HT3): -1.8%

Reference: paper PMC11773556, “Neuromodulating Alkaloids from Millipede Defensive Secretions” (Journal of Natural Products, 2024)
